Measured values from patent US20030199429A1.
No constants are given. Whether binding was seen depends on the method and setting. Some binding calls cover weakened binding; strength is not graded here.

The chains behind the UniProt entries cited, without tags or fusion partners. Where a name states a change or a piece, a line headed by the entry shows the natural chain unless it says otherwise.
UniProt Q15303: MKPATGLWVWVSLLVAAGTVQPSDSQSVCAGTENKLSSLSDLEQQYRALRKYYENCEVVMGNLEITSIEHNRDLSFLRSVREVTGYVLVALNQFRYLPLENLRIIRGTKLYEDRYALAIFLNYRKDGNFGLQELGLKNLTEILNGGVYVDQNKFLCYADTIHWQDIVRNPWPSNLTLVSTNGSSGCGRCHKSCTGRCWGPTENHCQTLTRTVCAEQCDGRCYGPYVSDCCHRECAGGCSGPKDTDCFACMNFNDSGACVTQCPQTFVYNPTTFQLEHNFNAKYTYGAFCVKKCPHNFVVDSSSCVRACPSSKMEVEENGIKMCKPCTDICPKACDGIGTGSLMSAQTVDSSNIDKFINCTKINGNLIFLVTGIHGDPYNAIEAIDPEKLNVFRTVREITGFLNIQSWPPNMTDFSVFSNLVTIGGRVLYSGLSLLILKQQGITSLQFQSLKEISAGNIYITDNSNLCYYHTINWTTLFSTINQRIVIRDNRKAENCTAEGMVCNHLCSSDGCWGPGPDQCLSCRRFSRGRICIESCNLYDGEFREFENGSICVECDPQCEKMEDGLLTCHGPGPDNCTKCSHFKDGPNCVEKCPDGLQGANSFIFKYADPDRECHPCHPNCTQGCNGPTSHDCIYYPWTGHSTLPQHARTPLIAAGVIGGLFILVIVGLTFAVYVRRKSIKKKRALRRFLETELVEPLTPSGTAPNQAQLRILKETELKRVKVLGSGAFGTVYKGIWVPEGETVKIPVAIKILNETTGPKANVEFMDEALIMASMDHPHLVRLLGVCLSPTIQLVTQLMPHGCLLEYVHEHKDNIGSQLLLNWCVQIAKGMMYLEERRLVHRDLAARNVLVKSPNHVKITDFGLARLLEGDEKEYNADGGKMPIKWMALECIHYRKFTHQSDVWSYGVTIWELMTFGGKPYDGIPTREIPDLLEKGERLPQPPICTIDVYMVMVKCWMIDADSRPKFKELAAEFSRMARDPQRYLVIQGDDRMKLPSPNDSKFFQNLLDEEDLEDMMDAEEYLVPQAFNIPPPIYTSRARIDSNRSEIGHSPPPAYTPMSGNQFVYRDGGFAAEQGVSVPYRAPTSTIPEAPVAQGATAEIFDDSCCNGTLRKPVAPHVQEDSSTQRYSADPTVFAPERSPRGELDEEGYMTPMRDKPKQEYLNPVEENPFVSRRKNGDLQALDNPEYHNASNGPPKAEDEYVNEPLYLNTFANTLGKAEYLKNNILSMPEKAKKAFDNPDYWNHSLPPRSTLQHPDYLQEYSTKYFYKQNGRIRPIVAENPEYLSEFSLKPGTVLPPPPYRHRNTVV

Molecular target: HER2/HER4 IgG heterodimers (human) (UniProt P04626+Q15303)
Assay: Western blot under non reducing conditions probed with HER2/HER4 IgG heterodimers

B1: γ-HRG (partially purified from conditioned medium of MDA-MB-175 cells) (ligand)
chain: MDVKERKPYRSLTRRRDAERRYTSSSADSEEGKAPQKSYSSSETLKAYDQDARLAYGSRVKDIVPQEAEEFCRTGANFTLRELGLEEVTPPHGTLYRTDIGLPHCGYSMGAGSDADMEADTVLSPEHPVRLWGRSTRSGRSSCLSSRANSNLTLTDTEHENTETDHPGGLQNHARLRTPPPPLSHAHTPNQHHAASINSLNRGNFTPRSNPSPAPTDHSLSGEPPAGGAQEPAHAQENWLLNSNIPLETRNLGKQPFLGTLQDNLIEMDILGASRHDGAYSDGHFLFKPGGTSPLFCTTSPGYPLTSSTVYSPPPRPLPRSTFARPAFNLKKPSKYCNWKCAALSAIVISATLVILLAYFVAMHLFGLNWHLQPMEGQMYEITEDTASSWPVPTDVSLYPSGGTGLETPDRKGKGTTEGKPSSFFPEDSFIDSGEIDVGRRASQKIPPGTFWRSQVFIDHPVHLKFNVSLGKAALVGIYGRKGLPPSHTQFDFVELLDGRRLLTQEARSLEGTPRQSRGTVPPSSHETGFIQYLDSGIWHLAFYNDGKESEVVSFLTTAIALPPRLKEMKSQESAAGSKLVLRCETSSEYSSLRFKWFKNGNELNRKNKPQNIKIQKKPGKSELRINKASLADSGEYMCKVISKLGNDSASANITIVESNEIITGMPASTEGAYVSSESPIRISVSTEGANTSSSTSTSTTGTSHLVKCAEKEKTFCVNGGECFMVKDLSNPSRYLCKCPNEFTGDRCQNYVMASFYSTSTPFLSLPE
  binding: binds
